Results reported in PMC9629621.
Results are given in words; binding and its absence hold for the method and conditions named. Binding seen in cells or lysates may run through a third protein. Here binding means that the protein was enriched with, or labelled near, the bait; the list need not be complete.

Chains of the proteins cited; added tags and fusions are not shown.
UniProt P10591: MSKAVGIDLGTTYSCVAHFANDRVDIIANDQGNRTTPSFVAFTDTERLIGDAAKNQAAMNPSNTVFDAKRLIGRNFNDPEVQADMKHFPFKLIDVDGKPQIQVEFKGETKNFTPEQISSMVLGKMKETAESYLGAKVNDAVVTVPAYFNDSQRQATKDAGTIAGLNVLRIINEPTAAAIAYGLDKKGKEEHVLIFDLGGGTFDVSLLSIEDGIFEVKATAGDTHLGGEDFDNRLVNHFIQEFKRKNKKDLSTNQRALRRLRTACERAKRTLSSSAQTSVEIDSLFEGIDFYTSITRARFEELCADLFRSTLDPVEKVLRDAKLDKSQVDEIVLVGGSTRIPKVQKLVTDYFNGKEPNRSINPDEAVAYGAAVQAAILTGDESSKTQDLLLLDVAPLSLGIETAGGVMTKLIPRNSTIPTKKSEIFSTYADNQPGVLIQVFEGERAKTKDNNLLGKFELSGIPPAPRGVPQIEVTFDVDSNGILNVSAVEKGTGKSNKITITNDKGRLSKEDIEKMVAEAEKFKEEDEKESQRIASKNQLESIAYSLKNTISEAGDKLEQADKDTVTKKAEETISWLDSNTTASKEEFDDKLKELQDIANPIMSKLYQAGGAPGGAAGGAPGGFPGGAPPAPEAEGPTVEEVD
UniProt P47079: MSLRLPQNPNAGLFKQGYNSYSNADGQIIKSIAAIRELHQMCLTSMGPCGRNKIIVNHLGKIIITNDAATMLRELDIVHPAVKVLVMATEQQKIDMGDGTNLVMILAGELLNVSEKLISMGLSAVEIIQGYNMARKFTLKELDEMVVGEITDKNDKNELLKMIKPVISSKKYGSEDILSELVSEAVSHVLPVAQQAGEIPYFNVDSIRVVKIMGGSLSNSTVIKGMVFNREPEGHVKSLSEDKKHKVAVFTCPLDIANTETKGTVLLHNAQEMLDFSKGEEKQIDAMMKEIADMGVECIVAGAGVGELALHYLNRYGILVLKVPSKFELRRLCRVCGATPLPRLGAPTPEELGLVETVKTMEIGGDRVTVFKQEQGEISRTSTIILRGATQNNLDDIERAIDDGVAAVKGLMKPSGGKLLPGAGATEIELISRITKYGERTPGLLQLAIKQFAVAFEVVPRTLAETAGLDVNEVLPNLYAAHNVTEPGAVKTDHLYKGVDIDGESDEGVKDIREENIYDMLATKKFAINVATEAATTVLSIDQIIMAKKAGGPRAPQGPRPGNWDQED
UniProt P25491: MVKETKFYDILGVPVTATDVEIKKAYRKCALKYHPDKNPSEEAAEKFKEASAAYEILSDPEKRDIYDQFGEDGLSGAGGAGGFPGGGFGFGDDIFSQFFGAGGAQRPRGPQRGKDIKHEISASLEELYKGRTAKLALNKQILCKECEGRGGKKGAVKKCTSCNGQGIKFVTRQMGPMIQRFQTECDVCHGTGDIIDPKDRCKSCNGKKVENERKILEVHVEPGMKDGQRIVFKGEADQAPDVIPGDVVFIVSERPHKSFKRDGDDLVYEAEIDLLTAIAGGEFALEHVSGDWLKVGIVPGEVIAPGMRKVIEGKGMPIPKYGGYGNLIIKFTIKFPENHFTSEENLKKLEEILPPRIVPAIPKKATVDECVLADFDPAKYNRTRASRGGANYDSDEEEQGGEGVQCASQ

Target: HIS-tagged Ssa1 (yeast Hsp70) (S. cerevisiae) (UniProt P10591)
Assay: affinity purification with mass spectrometry; HIS-Ssa1 complexes purified from yeast (His-Trap), with or without DSSO; all proteins identified by HCD shotgun proteomics; ATP not replenished

Molecule | binding
Cct8 (endogenous) (from UniProt P47079 1-568) | binds
Ydj1 co-chaperone (from UniProt P25491 1-409) | binds
Sse1 (endogenous) (protein, UniProt P32589 1-693) MSTPFGLDLGNNNSVLAVARNRGIDIVVNEVSNRSTPSVVGFGPKNRYLGETGKNKQTSNIKNTVANLKRIIGLDYHHPDFEQESKHFTSKLVELDDKKTGAEVRFAGEKHVFSATQLAAMFIDKVKDTVKQDTKANITDVCIAVPPWYTEEQRYNIADAARIAGLNPVRIVNDVTAAGVSYGIFKTDLPEGEEKPRIVAFVDIGHSSYTCSIMAFKKGQLKVLGTACDKHFGGRDFDLAITEHFADEFKTKYKIDIRENPKAYNRILTAAEKLKKVLSANTNAPFSVESVMNDVDVSSQLSREELEELVKPLLERVTEPVTKALAQAKLSAEEVDFVEIIGGTTRIPTLKQSISEAFGKPLSTTLNQDEAIAKGAAFICAIHSPTLRVRPFKFEDIHPYSVSYSWDKQVEDEDHMEVFPAGSSFPSTKLITLNRTGDFSMAASYTDITQLPPNTPEQIANWEITGVQLPEGQDSVPVKLKLRCDPSGLHTIEEAYTIEDIEVEEPIPLPEDAPEDAEQEFKKVTKTVKKDDLTIVAHTFGLDAKKLNELIEKENEMLAQDKLVAETEDRKNTLEEYIYTLRGKLEEEYAPFASDAEKTKLQGMLNKAEEWLYDEGFDSIKAKYIAKYEELASLGNIIRGRYLAKEEEKKQAIRSKQEASQMAAMAEKLAAQRKAEAEKKEEKKDTEGDVDMD | binds
